Experimental data reported in patent US20020107370A1.
These are yes or no findings as the source states them, for the method shown. In cells and extracts the contact can be indirect. Some binding calls cover weakened binding; strength is not graded here.

Amino acid sequences for entries named in this document (tags omitted). A change or cut given only in a name is not applied to a line headed by its entry. Residues count along the entry.
UniProt O14727: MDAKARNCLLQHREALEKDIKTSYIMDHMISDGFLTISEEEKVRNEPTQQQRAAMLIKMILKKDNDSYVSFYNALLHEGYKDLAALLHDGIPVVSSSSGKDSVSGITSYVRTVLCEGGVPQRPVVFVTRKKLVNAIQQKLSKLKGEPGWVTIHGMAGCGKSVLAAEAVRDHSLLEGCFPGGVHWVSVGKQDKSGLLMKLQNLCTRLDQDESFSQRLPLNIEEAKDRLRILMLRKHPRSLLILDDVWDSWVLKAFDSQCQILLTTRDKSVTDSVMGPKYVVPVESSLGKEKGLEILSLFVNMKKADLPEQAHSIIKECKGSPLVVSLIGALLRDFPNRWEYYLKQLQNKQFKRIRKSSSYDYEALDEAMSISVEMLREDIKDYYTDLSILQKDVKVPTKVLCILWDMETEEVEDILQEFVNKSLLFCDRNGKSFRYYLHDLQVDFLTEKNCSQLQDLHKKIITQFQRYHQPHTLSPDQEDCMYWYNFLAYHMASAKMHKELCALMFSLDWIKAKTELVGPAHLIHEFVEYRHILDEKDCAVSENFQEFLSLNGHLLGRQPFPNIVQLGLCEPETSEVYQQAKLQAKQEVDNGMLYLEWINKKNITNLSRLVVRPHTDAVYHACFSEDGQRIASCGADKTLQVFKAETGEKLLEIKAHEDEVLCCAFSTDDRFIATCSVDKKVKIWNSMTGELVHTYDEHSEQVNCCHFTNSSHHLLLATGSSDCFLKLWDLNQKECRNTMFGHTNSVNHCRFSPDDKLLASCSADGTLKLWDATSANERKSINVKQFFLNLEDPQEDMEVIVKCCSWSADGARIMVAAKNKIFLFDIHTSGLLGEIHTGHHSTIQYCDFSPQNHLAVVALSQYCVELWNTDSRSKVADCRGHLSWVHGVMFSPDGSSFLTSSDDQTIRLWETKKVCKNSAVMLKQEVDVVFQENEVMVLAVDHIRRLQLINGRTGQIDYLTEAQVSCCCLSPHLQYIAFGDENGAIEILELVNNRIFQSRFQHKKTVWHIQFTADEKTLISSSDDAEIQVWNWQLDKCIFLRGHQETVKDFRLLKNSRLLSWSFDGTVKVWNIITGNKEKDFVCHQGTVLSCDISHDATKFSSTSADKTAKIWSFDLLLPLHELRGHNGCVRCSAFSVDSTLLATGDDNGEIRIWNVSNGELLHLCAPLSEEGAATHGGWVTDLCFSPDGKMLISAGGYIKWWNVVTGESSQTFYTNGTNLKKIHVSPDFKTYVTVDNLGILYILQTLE
UniProt P99999, residues 2-105: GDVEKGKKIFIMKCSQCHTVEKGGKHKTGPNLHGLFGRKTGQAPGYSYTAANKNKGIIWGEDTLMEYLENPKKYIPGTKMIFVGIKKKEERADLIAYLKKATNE

Target: Apaf-1 (native human Apaf-1 from HeLa cell cytosol) (human) (UniProt O14727)
Assay: co-immunoprecipitation with anti-Apaf-1 antiserum from un-fractionated HeLa cell S-100, Western blot

binding: binds
Substance: cytochrome c in un-fractionated HeLa cell S-100 (from UniProt P99999 2-105)
